Results reported in PubChem BioAssay AID248 (DTP/NCI, 2004).
The list shows only some results of the screen, not a fair sample: it gathers tests that were run many times, whatever their T/C, doses with no T/C, and many T/C values between a quarter and a half above the control. Other doses and runs of a compound stand elsewhere. T/C: endpoint of the treated group in % of that of the vehicle group. Some doses have a count of surviving animals in place of a T/C: the source holds a T/C of zero for them, seemingly a mark for toxic or unscored doses. Some doses without a T/C left all or most animals alive at the check, yet need not have been tolerated: survival well below the control is almost never listed, so the zero probably covers shortened survival too. Counts of survivors are from the toxicity check (mostly the fifth day) where no day follows; animals may have died later. Schedules are NCI's codes, read here as Q, the interval in days (D) or hours (H), X, the number of doses. Some structures stand for samples that the source files as different forms (salt, stereo form or complex); doses refer to the form tested. Where survival is the endpoint, this PubChem deposit counts one and a half times the control or more as active, and values a quarter to a half above the control carry no call in these data; other NCI protocols may use other cut-offs. Some schedules carry Z or #; the key to these is not given. Some T/C values are followed by the survivors on the day toxicity was checked, most often the fifth; without a count, all were alive then. Some entries hold several experiments; the results are listed from low to high. Signs of the kind (2×) stand for listed records that agree.

Tested on: L1210 leukemia ip in BDF1 mice, survival T/C
Assay: NCI In Vivo Anticancer Drug Screen. Data for tumor model L1210 Leukemia (intraperitoneal) in B6D2F1 (BDF1) mice
Conditions: T/C endpoint: mean survival time, higher T/C = longer survival

SMILES: Cc1c2ccncc2c(C)c2c1[nH]c1ccccc12
- survivor count (dose: 0.59 mg/kg/injection, schedule: Q03HX016 (ip), vehicle: other): 5 of 8
- survivor count (dose: 1.18 mg/kg/injection, schedule: Q03HX016 (ip), vehicle: other): 3 of 8
- T/C (dose: 2.0 mg/kg/injection, schedule: Q01DX009 (ip), vehicle: Klucel (hydroxypropylcellulose) (HPC)): 105 (2×), 117, 124, 125, 134 % of control
- T/C (dose: 2.0 mg/kg/injection, schedule: Q01DX009 (ip), vehicle: saline with Tween-80, evaluated on day 30): 93, 111 [4 of 6 alive], 115, 121 (2×), 125, 125 [5 of 6 alive], 126, 132, 134, 138 % of control
- T/C (dose: 2.0 mg/kg/injection, schedule: Q01DX009 (ip), vehicle: saline with Tween-80, evaluated on day 60): 127 and 132 % of control
- T/C (dose: 2.0 mg/kg/injection, schedule: Q01DX009 (ip), vehicle: saline): 132, 142, 145 % of control
- T/C (dose: 2.0 mg/kg/injection, schedule: Q01DX009 (ip), vehicle: water): 134 % of control
- survivor count (dose: 2.35 mg/kg/injection, schedule: Q03HX008 (ip), vehicle: other): 3 of 8
- survivor count (dose: 2.35 mg/kg/injection, schedule: Q03HX016 (ip), vehicle: other): 3 of 8
- T/C (dose: 2.5 mg/kg/injection, schedule: Q04DX009 (ip), vehicle: Klucel (hydroxypropylcellulose) (HPC)): 130 % of control
- T/C (dose: 2.5 mg/kg/injection, schedule: Q#A X018 (ip), vehicle: other): 129 % of control
- T/C (dose: 3.12 mg/kg/injection, schedule: Q01DX009 (ip), vehicle: clinical formulation): 125 % of control
- T/C (dose: 4.0 mg/kg/injection, schedule: Q01DX005 (ip), vehicle: other): 130 % of control
- T/C (dose: 4.0 mg/kg/injection, schedule: Q01DX009 (ip), vehicle: Klucel (hydroxypropylcellulose) (HPC)): 119, 121 (2×), 124, 126, 130 % of control
- T/C (dose: 4.0 mg/kg/injection, schedule: Q01DX009 (ip), vehicle: other, evaluated on day 30): 134 % of control
- T/C (dose: 4.0 mg/kg/injection, schedule: Q01DX009 (ip), vehicle: other, evaluated on day 40): 125 % of control
- T/C (dose: 4.0 mg/kg/injection, schedule: Q01DX009 (ip), vehicle: saline with Tween-80, evaluated on day 30): 115, 117, 121, 127, 131, 134, 138, 138 [5 of 6 alive], 139, 140, 142, 152 % of control
- T/C (dose: 4.0 mg/kg/injection, schedule: Q01DX009 (ip), vehicle: saline with Tween-80, evaluated on day 38): 120 % of control [5 of 6 alive]
- T/C (dose: 4.0 mg/kg/injection, schedule: Q01DX009 (ip), vehicle: saline with Tween-80, evaluated on day 60): 137 [9 of 10 alive] and 138 % of control
- T/C (dose: 4.0 mg/kg/injection, schedule: Q01DX009 (ip), vehicle: saline, evaluated on day 23): 143 % of control
- T/C (dose: 4.0 mg/kg/injection, schedule: Q01DX009 (ip), vehicle: saline, evaluated on day 30): 132 (2×), 140, 148 % of control
- T/C (dose: 4.0 mg/kg/injection, schedule: Q01DX009 (ip), vehicle: water): 134 and 135 % of control
- T/C (dose: 4.0 mg/kg/injection, schedule: Q03HX008 (ip), vehicle: clinical formulation): 129 % of control
- T/C (dose: 4.0 mg/kg/injection, schedule: Q03HX016 (ip), vehicle: clinical formulation): 146 % of control
- T/C (dose: 4.0 mg/kg/injection, schedule: Q03HX024 (ip), vehicle: acid diluted with saline): 134 % of control
- T/C (dose: 4.68 mg/kg/injection, schedule: Q03HX016 (ip), vehicle: steroid suspending solution): 146 % of control
- T/C (dose: 4.69 mg/kg/injection, schedule: Q01DX009 (ip), vehicle: saline with Tween-80): 139 % of control
- survivor count (dose: 4.69 mg/kg/injection, schedule: Q03HX016 (ip), vehicle: other): 3 of 8
- T/C (dose: 5.0 mg/kg/injection, schedule: Q01DX009 (ip), vehicle: carboxymethylcellulose (CMC)): 127 % of control
- T/C (dose: 5.0 mg/kg/injection, schedule: Q03HX008 (ip), vehicle: acid diluted with saline): 131 % of control
- T/C (dose: 5.0 mg/kg/injection, schedule: Q04DX009 (ip), vehicle: Klucel (hydroxypropylcellulose) (HPC)): 138 % of control [5 of 6 alive]
- T/C (dose: 6.2 mg/kg/injection, schedule: Q01DX Z (ip), vehicle: saline): 130 % of control
- T/C (dose: 6.25 mg/kg/injection, schedule: Q01DX009 (ip), vehicle: citric acid): 128 % of control
- T/C (dose: 8.0 mg/kg/injection, schedule: Q01DX005 (ip), vehicle: carboxymethylcellulose (CMC)): 135 % of control
- T/C (dose: 8.0 mg/kg/injection, schedule: Q01DX005 (ip), vehicle: other): 139 % of control
- T/C (dose: 8.0 mg/kg/injection, schedule: Q01DX009 (ip), vehicle: Klucel (hydroxypropylcellulose) (HPC)): 121, 132, 136, 141, 145, 150 % of control
- T/C (dose: 8.0 mg/kg/injection, schedule: Q01DX009 (ip), vehicle: clinical formulation): 138 % of control
- T/C (dose: 8.0 mg/kg/injection, schedule: Q01DX009 (ip), vehicle: other, evaluated on day 23): 152 % of control
- T/C (dose: 8.0 mg/kg/injection, schedule: Q01DX009 (ip), vehicle: other, evaluated on day 30): 144 and 146 % of control
- T/C (dose: 8.0 mg/kg/injection, schedule: Q01DX009 (ip), vehicle: other, evaluated on day 40): 142 % of control
- T/C (dose: 8.0 mg/kg/injection, schedule: Q01DX009 (ip), vehicle: saline with Tween-80, evaluated on day 30): 115, 123, 130, 143, 146 [5 of 6 alive], 149, 150, 155 (2×), 161, 168, 187 % of control [5 of 6 alive]
- T/C (dose: 8.0 mg/kg/injection, schedule: Q01DX009 (ip), vehicle: saline with Tween-80, evaluated on day 38): 91 % of control
- T/C (dose: 8.0 mg/kg/injection, schedule: Q01DX009 (ip), vehicle: saline with Tween-80, evaluated on day 60): 148, 153, 282 % of control
- T/C (dose: 8.0 mg/kg/injection, schedule: Q01DX009 (ip), vehicle: saline, evaluated on day 23): 154 % of control
- T/C (dose: 8.0 mg/kg/injection, schedule: Q01DX009 (ip), vehicle: saline, evaluated on day 30): 145, 161, 163 % of control
- T/C (dose: 8.0 mg/kg/injection, schedule: Q01DX009 (ip), vehicle: water): 138 and 142 % of control
- T/C (dose: 8.0 mg/kg/injection, schedule: Q01DX009 (sc), vehicle: clinical formulation): 131 % of control
- survivor count (dose: 8.0 mg/kg/injection, schedule: Q03HX024 (ip), vehicle: acid diluted with saline): 9 of 10
- survivor count (dose: 9.37 mg/kg/injection, schedule: Q03HX008 (ip), vehicle: other): 3 of 8
- survivor count (dose: 9.37 mg/kg/injection, schedule: Q03HX016 (ip), vehicle: other): 2 of 8
- T/C (dose: 9.37 mg/kg/injection, schedule: Q04DX003 (ip), vehicle: other): 134 % of control
- T/C (dose: 9.37 mg/kg/injection, schedule: Q04DX003 (ip), vehicle: saline with Tween-80): 126 % of control
- T/C (dose: 10.0 mg/kg/injection, schedule: Q01DX009 (ip), vehicle: other, evaluated on day 30): 145 % of control
- T/C (dose: 10.0 mg/kg/injection, schedule: Q01DX009 (ip), vehicle: other, evaluated on day 60): 147 % of control
- T/C (dose: 10.0 mg/kg/injection, schedule: Q03HX008 (ip), vehicle: acid diluted with saline): 138 % of control
- T/C (dose: 10.0 mg/kg/injection, schedule: Q04DX009 (ip), vehicle: Klucel (hydroxypropylcellulose) (HPC)): 143 % of control
- T/C (dose: 12.5 mg/kg/injection, schedule: Q01DX Z (ip), vehicle: saline): 135 % of control
- T/C (dose: 12.5 mg/kg/injection, schedule: Q04DX003 (ip), vehicle: clinical formulation): 136 % of control
- T/C (dose: 15.0 mg/kg/injection, schedule: Q01DX009 (oral), vehicle: saline): 137 % of control
- T/C (dose: 16.0 mg/kg/injection, schedule: Q01DX005 (ip), vehicle: other): 140 % of control
- T/C (dose: 16.0 mg/kg/injection, schedule: Q01DX009 (ip), vehicle: Klucel (hydroxypropylcellulose) (HPC)): 132, 142, 153, 156, 166, 180 % of control
- T/C (dose: 16.0 mg/kg/injection, schedule: Q01DX009 (ip), vehicle: other, evaluated on day 23): 202 % of control
- T/C (dose: 16.0 mg/kg/injection, schedule: Q01DX009 (ip), vehicle: other, evaluated on day 30): 190 and 191 % of control
- T/C (dose: 16.0 mg/kg/injection, schedule: Q01DX009 (ip), vehicle: other, evaluated on day 40): 154 % of control
- T/C (dose: 16.0 mg/kg/injection, schedule: Q01DX009 (ip), vehicle: saline with Tween-80, evaluated on day 30): 135, 136, 145, 152, 156, 161, 162 [5 of 6 alive], 167, 175, 188, 194, 229 % of control
- T/C (dose: 16.0 mg/kg/injection, schedule: Q01DX009 (ip), vehicle: saline with Tween-80, evaluated on day 38): 115 % of control
- T/C (dose: 16.0 mg/kg/injection, schedule: Q01DX009 (ip), vehicle: saline with Tween-80, evaluated on day 60): 181, 202, 261 % of control
- T/C (dose: 16.0 mg/kg/injection, schedule: Q01DX009 (ip), vehicle: saline, evaluated on day 23): 180 % of control
- T/C (dose: 16.0 mg/kg/injection, schedule: Q01DX009 (ip), vehicle: saline, evaluated on day 30): 119, 176, 234 % of control
- T/C (dose: 16.0 mg/kg/injection, schedule: Q01DX009 (oral), vehicle: clinical formulation): 141 % of control
- T/C (dose: 16.0 mg/kg/injection, schedule: Q03HX008 (oral), vehicle: clinical formulation): 143 % of control
- survivor count (dose: 16.0 mg/kg/injection, schedule: Q03HX016 (ip), vehicle: clinical formulation): 10 of 10
- survivor count (dose: 16.0 mg/kg/injection, schedule: Q03HX024 (ip), vehicle: acid diluted with saline): 4 of 10
- survivor count (dose: 16.0 mg/kg/injection, schedule: Q03HX024 (ip), vehicle: clinical formulation): 7 of 10
- T/C (dose: 16.0 mg/kg/injection, schedule: Q04DX003 (ip), vehicle: Klucel (hydroxypropylcellulose) (HPC), evaluated on day 5): 128 % of control
- T/C (dose: 16.0 mg/kg/injection, schedule: Q04DX003 (ip), vehicle: Klucel (hydroxypropylcellulose) (HPC), evaluated on day 60): 128 % of control
- T/C (dose: 16.0 mg/kg/injection, schedule: Q04DX003 (ip), vehicle: clinical formulation): 134 % of control
- T/C (dose: 16.0 mg/kg/injection, schedule: Q## X003 (ip), vehicle: other): 136 % of control
- T/C (dose: 16.0 mg/kg/injection, schedule: Q## X009 (ip), vehicle: carboxymethylcellulose (CMC)): 148 % of control
- T/C (dose: 16.0 mg/kg/injection, schedule: Q## X024 (ip), vehicle: other): 135 % of control
- T/C (dose: 18.75 mg/kg/injection, schedule: Q01DX001 (ip), vehicle: other): 113, 114, 120, 122 % of control
- T/C (dose: 18.75 mg/kg/injection, schedule: Q01DX001 (ip), vehicle: steroid suspending solution): 127 % of control
- survivor count (dose: 18.75 mg/kg/injection, schedule: Q03HX008 (ip), vehicle: other): 3 of 8
- survivor count (dose: 18.75 mg/kg/injection, schedule: Q03HX016 (ip), vehicle: other): 2 of 8
- T/C (dose: 18.75 mg/kg/injection, schedule: Q04DX003 (ip), vehicle: clinical formulation): 146 % of control
- T/C (dose: 18.75 mg/kg/injection, schedule: Q04DX003 (ip), vehicle: lactic acid): 144 % of control
